# PubChem BioAssay AID1259254 – NCATS, 2017
# Assay: 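Finding genes that stop cells copying their DNA twice in one cycle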 (primary screen)
# Cells: human HCT116 colorectal cancer cells
# Reagent: single siRNA against human genes
# Timing: 3 days
# Measurement: 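Nuclei stained with Hoechst and imaged; cell-cycle phase assigned by DNA content; G2 share scaled per plate, non-targeting siRNA 0%, GMNN siRNA 100%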
# Direction: G2 robust z-score and G2 cells, % of GMNN control: higher = more G2 cells, more excess DNA replication; raw share of cells in G2: higher = larger share of cells with G2 DNA content
# Call rule: 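Active siRNAs have a G2 robust z of 5 or more median absolute deviations over the median, which in these data means about 38% or higher of GMNN control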
# The whole screen tested about 59,000 reagents; below is a random part of them. Over the whole deposit, about 1,550 (2.6%) are marked active. 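G2 share is only a proxy for re-replication; each gene was hit by three separate siRNAs, and active genes were retested.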 Raw values vary from plate to plate and are shown uncorrected. A number with no mark means an inactive call. Reagents against one gene are numbered here. Not stated in the record: the amount of reagent.
gene,reagent,G2 robust z-score,"G2 cells, % of GMNN control",raw share of cells in G2 (%)
MAPK10 (mitogen-activated protein kinase 10),1,-1.45,-7.27,3.21
MAPK10 (mitogen-activated protein kinase 10),2,-0.997,-4.05,4.05
MAPK10 (mitogen-activated protein kinase 10),3,-0.95,-3.72,2.71
UBTFL3 (UBTF like 3 (pseudogene)),1,-0.627,-1.45,3.63
UBTFL3 (UBTF like 3 (pseudogene)),2,-0.233,1.33,3.52
UBTFL3 (UBTF like 3 (pseudogene)),3,1.13,10.9,6.54
SFXN5 (sideroflexin 5),1,0.994,9.96,10.3
SFXN5 (sideroflexin 5),2,-0.198,1.57,5.64
SFXN5 (sideroflexin 5),3,-0.343,0.554,4.69
HOXB2 (homeobox B2),1,-0.434,-0.0895,5.01
HOXB2 (homeobox B2),2,-0.947,-3.69,4.28
HOXB2 (homeobox B2),3,1.09,10.6,8.1
FABP4 (fatty acid binding protein 4),1,8.43 (active),62.3,27.8
FABP4 (fatty acid binding protein 4),2,0.119,3.8,6.71
FABP4 (fatty acid binding protein 4),3,1.71,15,8.99
GFRA4 (GDNF family receptor alpha 4),1,0.0844,3.56,5.61
GFRA4 (GDNF family receptor alpha 4),2,0.656,7.58,6.98
GFRA4 (GDNF family receptor alpha 4),3,3.03,24.3,15.7
CEP192 (centrosomal protein 192),1,2.9,23.4,10.6
CEP192 (centrosomal protein 192),2,1.58,14.1,9.94
CEP192 (centrosomal protein 192),3,3.22,25.7,14.8
SMTNL1 (smoothelin like 1),1,0.707,7.94,6.46
SMTNL1 (smoothelin like 1),2,0.253,4.75,4.76
SMTNL1 (smoothelin like 1),3,0.913,9.39,6.19
DDX42 (DEAD-box helicase 42),1,4.38,33.8,15.5
DDX42 (DEAD-box helicase 42),2,0.129,3.88,7.92
DDX42 (DEAD-box helicase 42),3,3.36,26.6,13
ACAN (aggrecan),1,-0.954,-3.74,3.55
ACAN (aggrecan),2,-0.731,-2.18,3.29
ACAN (aggrecan),3,0.275,4.9,5.44
ZNF691 (zinc finger protein 691),1,0.21,4.44,4.36
ZNF691 (zinc finger protein 691),2,-0.541,-0.837,5.53
ZNF691 (zinc finger protein 691),3,-0.547,-0.881,3.36
AQP9 (aquaporin 9),1,2.24,18.7,11.1
AQP9 (aquaporin 9),2,0.477,6.32,7.32
AQP9 (aquaporin 9),3,-0.949,-3.71,2.61
HBD (hemoglobin subunit delta),1,-0.289,0.933,5.38
HBD (hemoglobin subunit delta),2,0.166,4.13,7.26
HBD (hemoglobin subunit delta),3,-0.749,-2.31,3.36
LSP1P4 (LSP1 pseudogene 4),1,-0.384,0.266,2.86
LSP1P4 (LSP1 pseudogene 4),2,-0.576,-1.08,2.85
LSP1P4 (LSP1 pseudogene 4),3,0.191,4.31,4.76
NDOR1 (NADPH dependent diflavin oxidoreductase 1),1,0.703,7.91,6.76
NDOR1 (NADPH dependent diflavin oxidoreductase 1),2,-0.494,-0.509,3.04
NDOR1 (NADPH dependent diflavin oxidoreductase 1),3,0.917,9.42,6.03
NDOR1 (NADPH dependent diflavin oxidoreductase 1),4,0.776,8.43,6.75
NDOR1 (NADPH dependent diflavin oxidoreductase 1),5,0.621,7.33,6.62
NDOR1 (NADPH dependent diflavin oxidoreductase 1),6,-0.288,0.939,6.59
FADS3 (fatty acid desaturase 3),1,1.88,16.2,11.9
FADS3 (fatty acid desaturase 3),2,-0.317,0.735,4.51
FADS3 (fatty acid desaturase 3),3,2.04,17.4,9.62
EMX2 (empty spiracles homeobox 2),1,1.19,11.4,9.37
EMX2 (empty spiracles homeobox 2),2,1.96,16.7,11.6
EMX2 (empty spiracles homeobox 2),3,-0.837,-2.92,2.62
TMEM109 (transmembrane protein 109),1,0.516,6.6,7.45
TMEM109 (transmembrane protein 109),2,-0.437,-0.106,4.56
TMEM109 (transmembrane protein 109),3,0.318,5.21,4.07
KCNAB1,1,1.2,11.4,9.44
KCNAB1,2,1.22,11.5,8.68
KCNAB1,3,0.746,8.22,7.58
TAFA5 (TAFA chemokine like family member 5),1,6.66 (active),49.9,23.2
TAFA5 (TAFA chemokine like family member 5),2,-0.535,-0.797,3.59
TAFA5 (TAFA chemokine like family member 5),3,0.231,4.59,4.9
"MAS1L (MAS1 proto-oncogene like, G protein-coupled receptor)",1,-1.14,-5.07,4.03
"MAS1L (MAS1 proto-oncogene like, G protein-coupled receptor)",2,0.774,8.41,7.46
"MAS1L (MAS1 proto-oncogene like, G protein-coupled receptor)",3,-0.994,-4.03,2.03
SLC25A32,1,-0.303,0.838,5.78
SLC25A32,2,-0.768,-2.44,3.31
SLC25A32,3,-0.81,-2.73,3.78
CYLC1 (cylicin 1),1,-1.06,-4.51,3.35
CYLC1 (cylicin 1),2,-0.315,0.754,5.23
CYLC1 (cylicin 1),3,-0.526,-0.734,3.84
PDE6A (phosphodiesterase 6A),1,0.0711,3.47,5.92
PDE6A (phosphodiesterase 6A),2,-1.02,-4.23,3.03
PDE6A (phosphodiesterase 6A),3,-0.201,1.55,3.96
ABI3 (ABI family member 3),1,-1.19,-5.41,3.5
ABI3 (ABI family member 3),2,-0.455,-0.234,4.16
ABI3 (ABI family member 3),3,-0.497,-0.527,3.6
TOMM5 (translocase of outer mitochondrial membrane 5),1,3.05,24.4,12.7
TOMM5 (translocase of outer mitochondrial membrane 5),2,-0.661,-1.68,2.85
TOMM5 (translocase of outer mitochondrial membrane 5),3,0.191,4.31,6.58
KLHL24 (kelch like family member 24),1,-0.0323,2.74,4.1
KLHL24 (kelch like family member 24),2,-0.696,-1.93,2.91
KLHL24 (kelch like family member 24),3,0.999,10,8.48
GFAP (glial fibrillary acidic protein),1,0.578,7.03,7.94
GFAP (glial fibrillary acidic protein),2,0.0606,3.39,4.87
GFAP (glial fibrillary acidic protein),3,3.15,25.1,14.4

No new results follow: an excerpt of the list.
gene,reagent,G2 robust z-score,"G2 cells, % of GMNN control",raw share of cells in G2 (%)
CEP192 (centrosomal protein 192),3,3.22,25.7,14.8
SMTNL1 (smoothelin like 1),1,0.707,7.94,6.46
SMTNL1 (smoothelin like 1),2,0.253,4.75,4.76
SMTNL1 (smoothelin like 1),3,0.913,9.39,6.19
DDX42 (DEAD-box helicase 42),1,4.38,33.8,15.5
DDX42 (DEAD-box helicase 42),2,0.129,3.88,7.92
DDX42 (DEAD-box helicase 42),3,3.36,26.6,13
ACAN (aggrecan),1,-0.954,-3.74,3.55
ACAN (aggrecan),2,-0.731,-2.18,3.29
ACAN (aggrecan),3,0.275,4.9,5.44
ZNF691 (zinc finger protein 691),1,0.21,4.44,4.36
